Experimental data taken from article PMC6370633.
No constants are given. Whether binding was seen depends on the method and setting.

By UniProt entry, the sequences of proteins in these tests, tags left out. Residues count along the entry.
UniProt P69996, residues 2-569: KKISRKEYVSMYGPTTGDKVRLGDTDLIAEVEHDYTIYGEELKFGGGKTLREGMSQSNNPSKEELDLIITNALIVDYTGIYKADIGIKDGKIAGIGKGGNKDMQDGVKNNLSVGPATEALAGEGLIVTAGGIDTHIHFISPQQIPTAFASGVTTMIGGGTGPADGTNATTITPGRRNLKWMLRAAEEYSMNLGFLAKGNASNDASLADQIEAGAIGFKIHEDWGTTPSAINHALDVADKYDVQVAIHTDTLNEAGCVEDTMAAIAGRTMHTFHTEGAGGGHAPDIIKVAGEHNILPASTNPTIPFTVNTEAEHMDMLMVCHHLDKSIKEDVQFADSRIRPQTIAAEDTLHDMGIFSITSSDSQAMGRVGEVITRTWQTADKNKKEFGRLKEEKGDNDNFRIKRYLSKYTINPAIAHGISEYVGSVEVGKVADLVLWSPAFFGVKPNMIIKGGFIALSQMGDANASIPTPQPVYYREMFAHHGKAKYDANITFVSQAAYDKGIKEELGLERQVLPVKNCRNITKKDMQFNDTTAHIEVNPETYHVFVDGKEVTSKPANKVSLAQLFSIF
UniProt P42383: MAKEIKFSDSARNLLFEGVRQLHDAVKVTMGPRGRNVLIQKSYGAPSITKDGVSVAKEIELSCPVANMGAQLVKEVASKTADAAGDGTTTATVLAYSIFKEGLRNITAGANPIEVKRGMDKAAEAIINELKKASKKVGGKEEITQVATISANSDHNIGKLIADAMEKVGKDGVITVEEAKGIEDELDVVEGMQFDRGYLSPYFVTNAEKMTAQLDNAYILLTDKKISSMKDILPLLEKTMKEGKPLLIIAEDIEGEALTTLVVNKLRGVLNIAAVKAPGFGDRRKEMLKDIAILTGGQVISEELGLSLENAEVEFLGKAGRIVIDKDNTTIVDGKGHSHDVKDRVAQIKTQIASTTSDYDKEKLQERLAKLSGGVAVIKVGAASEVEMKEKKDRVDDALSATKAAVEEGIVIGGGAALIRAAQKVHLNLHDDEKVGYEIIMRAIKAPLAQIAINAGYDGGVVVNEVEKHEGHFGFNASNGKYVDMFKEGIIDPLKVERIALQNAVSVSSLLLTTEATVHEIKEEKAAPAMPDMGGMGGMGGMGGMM

Target: GST-UreB (UreB fused with GST tag on its N-terminus) (Helicobacter pylori 26695) (UniProt P69996)
Assay: pull-down; GST-fused proteins on glutathione Sepharose 4B beads (20 μl), incubated with 0.4 ml purified Hsp60 (1 mg/ml in 50 mM Tris-HCl, pH 8.0) at 4°C for 2 h; washed four times; Western blot (anti-His) and SDS-PAGE; both purified

“Helicobacter pylori Hsp60 with a 6 × His tag on its C terminus (from UniProt P42383 1-546)” was tested, and the binding was “no binding (tested: 1 mg/ml Hsp60)”.
